{"sequences": {"note": "By UniProt entry, the sequences of proteins in these tests, tags left out. Where a name states a change or a piece, a line headed by the entry shows the natural chain unless it says otherwise.", "UniProt O15530": "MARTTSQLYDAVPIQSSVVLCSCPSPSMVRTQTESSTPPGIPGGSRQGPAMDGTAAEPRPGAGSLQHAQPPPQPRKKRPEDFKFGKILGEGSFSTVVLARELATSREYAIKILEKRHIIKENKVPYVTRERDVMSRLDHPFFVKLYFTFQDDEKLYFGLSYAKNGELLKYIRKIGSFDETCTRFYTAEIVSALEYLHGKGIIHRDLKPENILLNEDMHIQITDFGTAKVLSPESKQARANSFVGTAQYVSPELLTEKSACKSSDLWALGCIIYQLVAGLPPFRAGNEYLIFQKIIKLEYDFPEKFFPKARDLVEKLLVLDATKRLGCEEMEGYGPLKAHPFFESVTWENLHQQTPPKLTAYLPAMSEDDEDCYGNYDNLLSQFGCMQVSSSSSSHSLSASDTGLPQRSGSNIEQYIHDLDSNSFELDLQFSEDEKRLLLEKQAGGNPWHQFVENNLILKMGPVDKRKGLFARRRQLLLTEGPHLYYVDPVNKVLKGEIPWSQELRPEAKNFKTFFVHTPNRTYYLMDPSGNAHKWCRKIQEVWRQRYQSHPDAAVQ"}, "source": "the supplement of paper PMC12823440", "about": "“Inhibitors supercharge kinase turnover through native proteolytic circuits” (Nature, 2025)", "note": "Some of the results follow. The calls rarely recur for the same compound in another form.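 Kinases were expressed as nanoluciferase fusions in K562 cells and luminescence was read every 4 h between 2 and 18 h as percent of control, DMSO set to 100% and a positive control to 0%. A time point counts as decreased when the signal drops significantly (2 sigma). The hit call is the authors' own, does not follow from the count of time points alone, and its rule is not shown.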"}
{"target": "PDPK1 (UniProt O15530)", "experiment": "kinase-Nluc reporter destabilization hit call (1 = scored as downregulated) (binary); higher = compound decreases kinase abundance", "conditions": "K562; 2-18 h"}
{"smiles": "Cc1cc(F)c(Nc2ncnc3cc(OCc4ccccc4)ccc23)cc1O", "note": "(10 µM)", "kinase-Nluc reporter destabilization hit call": "inactive: 0"}
{"smiles": "CNCCOc1ccccc1C(C)(C)Nc1nccn(-c2cc(C(=O)NC3CC3)ccc2C)c1=O", "note": "[p38α inhibitor 2] (10 µM)", "kinase-Nluc reporter destabilization hit call": "inactive: 0"}
{"smiles": "CCn1c(-c2nonc2N)nc2c(C#CCO)ncc(OCCCN)c21", "note": "[AKT Kinase Inhibitor] (10 µM)", "kinase-Nluc reporter destabilization hit call": "inactive: 0"}
{"smiles": "NC(=O)c1nc(-c2c(F)cccc2Cl)oc1Nc1ccc(C(=O)N2CCOCC2)cc1", "note": "(10 µM)", "kinase-Nluc reporter destabilization hit call": "inactive: 0"}
{"smiles": "O=C(NCc1cccc(O)c1)c1cc2cc(F)ccc2[nH]1", "note": "(10 µM)", "kinase-Nluc reporter destabilization hit call": "inactive: 0"}
{"smiles": "Cc1nc(Nc2ncc(C(=O)Nc3c(C)cccc3Cl)s2)cc(N2CCN(C(=O)CCCCCCC(=O)N[C@H](C(=O)N3C[C@H](O)C[C@H]3C(=O)NCc3ccc(-c4scnc4C)cc3)C(C)(C)C)CC2)n1", "note": "(2.5 µM)", "kinase-Nluc reporter destabilization hit call": "inactive: 0"}
{"smiles": "Cc1cccc(-c2[nH]c(C(C)(C)C)nc2-c2ccc3c(c2)OCO3)n1", "note": "(2.5 µM)", "kinase-Nluc reporter destabilization hit call": "inactive: 0"}
{"smiles": "Cc1cccc(Cn2nc(C)c3c(NC(=O)c4csc5c(N)ncnc45)cccc32)n1", "note": "(10 µM)", "kinase-Nluc reporter destabilization hit call": "inactive: 0"}
{"smiles": "CC[C@@H]1CN(C(=O)NCC(F)(F)F)C[C@@H]1c1cnc2cnc3[nH]ccc3n12", "note": "[Upadacitinib] (10 µM)", "kinase-Nluc reporter destabilization hit call": "inactive: 0"}
{"smiles": "CNS(=O)(=O)C[C@H]1CC[C@H](N(C)c2[nH]cnc3nccc2-3)CC1", "note": "[Oclacitinib (maleate)] (10 µM)", "kinase-Nluc reporter destabilization hit call": "inactive: 0"}
{"smiles": "COc1cc(-c2cnc(N)c(-c3ccc(NC(=O)c4cn(CC5CCOCC5)cc(-c5ccc(C)cn5)c4=O)cc3F)c2)ccc1OC[C@H]1COCCO1", "note": "[DS-1205b (free base)] (10 µM)", "kinase-Nluc reporter destabilization hit call": "inactive: 0"}
